PubChem BioAssay AID493014 (National Center for Advancing Translational Sciences (NCATS), 2011)
Some of the results follow. Further columns of the screen follow, without active or inactive calls. The list favours compounds with an active or inconclusive main result. Words in brackets tell the shape of the fitted curve; partial curves, single points and poor fits give uncertain potencies.

Experiment: qHTS Assay to Find Inhibitors of Chronic Active B-Cell Receptor Signaling
Details: ABC-DLBCL IkBa-CBG/CBR reporter, luminescence ratio (green luciferase fused to IkBa over red control in TMD8 lymphoma cells), 4 h
In short: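 Concentration-response series (up to 46 uM) were applied to TMD8 dual-reporter cells for 4 h at 37C with doxycycline. Green/red ratio, after filter-overlap correction, defined %Activity; red signal alone was normalised to basal cells and zero luminescence.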

[1] = measured here: CBR red luminescence, cell number
[2] = measured here: IkBa-CBG green luminescence

| Compound | AC50 [1] | AC50 [2] |
| --- | --- | --- |
| O=C(Oc1ccc2c(c1)O/C(=C\c1ccncc1)C2=O)c1cccs1 | 5.01 µM [falling, single point] | – |
| CCN1CCN(Cc2c(O)ccc3c(=O)c(-c4ccc(OC)c(OC)c4)c(C)oc23)CC1 | 3.98 µM [rising, single point] | – |
| CC(=O)N1CCC(C(=O)Nc2ccccc2)(N(Cc2ccccc2)C(=O)c2cccnc2)CC1 | 17.8 µM [falling, partial curve] | – |
| COC(=O)C1=CNC=C(C(=O)OC)C1c1cccc2ccccc12 | 35.5 µM [falling, single point] | – |
| CCc1ccc(S(=O)(=O)/N=C2/C=C(Sc3ncn[nH]3)C(=O)c3ccccc32)cc1 | 2.31 µM [falling, full curve, poor fit] | 25.9 µM [falling, single point] |
| CCCNc1nc2c(c(=O)n(C)c(=O)n2C)n1CCC(C)C | 3.98 µM [falling, partial curve, poor fit] | – |
| CCCCCCC(=O)Nc1nc(C)c(-c2csc(Nc3ccccc3OC)n2)s1 | 3.55 µM [falling, partial curve] | – |
| CN1C(=O)[C@H]2[C@@H](C3CC3)N3C(=O)CN(Cc4ccc(-c5ccccc5)cc4)C(=O)[C@@]3(C)[C@H]2C1=O | 4.47 µM [falling, partial curve, poor fit] | – |
| O=C(CNc1ccc(Br)cc1)c1ccc(Br)s1 | 0.708 µM [falling, full curve, poor fit] | – |
| Cc1ccc2oc(=O)c3cnn(CC(=O)NCCc4ccsc4)c3c2c1 | 18.4 µM [falling, single point] | – |
| CC(=O)c1c(C)nc(-c2ccc3c(c2)OCO3)n1O | 12.6 µM [falling, partial curve] | – |
| Cc1cc(C(C)(C)C)oc1C(=O)Nc1ccc(CC(=O)O)cc1 | 17.8 µM [rising, single point] | – |
| O=C(NCc1nc2ccccc2[nH]1)C1=C[C@H](C2CC2)C[C@H](OCc2ccc(CO)cc2)O1 | 15.8 µM [falling, partial curve] | – |
| Nc1ccc(C(=O)n2c3ccccc3c3ccccc32)cc1 | 16.4 µM [rising, partial curve] | 8.2 µM [falling, partial curve] |
| Cc1ccc(SCC(=O)Nc2nccs2)cc1 | 10 µM [falling, partial curve, poor fit] | – |
| CCC(C)n1c(-c2cc(OC)c(OC)c(OC)c2)nc2nc3ccccc3nc21 (configuration not stated) | 18.4 µM [falling, single point] | – |
| CCOC(=O)C1CCN(C(=O)c2cc3ccc(OC)cc3[nH]2)CC1 | 3.98 µM [falling, partial curve, poor fit] | – |
| COc1ccc(NC(=O)c2ccco2)cc1NC(=O)c1ccc(Br)o1 | 2.06 µM [rising, partial curve, poor fit] | – |
| Cc1ccc(NC(=O)CS(=O)(=O)c2cn(CC(=O)N3CCOCC3)c3ccccc23)cc1 | 2 µM [falling, full curve] | – |
| CCOC(=O)C1CCN(C(=O)c2ccc(Oc3cc(Cl)cc(Cl)c3)o2)CC1 | 7.94 µM [falling, partial curve, poor fit] | – |
| Cc1nc(SCC(=O)NCCc2ccccc2)nc(C)c1C | 0.651 µM [rising, partial curve, poor fit] | – |

| Compound | AC50 [1] | AC50 [2] |
| --- | --- | --- |
| CCCc1cc(=O)[nH]c(SCC(=O)c2cc(C)n(C3CC3)c2C)n1 | 35.5 µM [falling, partial curve, poor fit] | – |
| Cc1ccc(-c2csc(/C(C#N)=C(\O)CCl)n2)cc1 | 11.2 µM [rising, single point] | – |
| CCN(CC)CCSc1nnc2c3cc(C)ccc3n(Cc3ccccc3)c2n1 | 6.31 µM [falling, full curve, poor fit] | – |
| Cc1cccc2c(=O)cc(C)n(Cc3ccccc3)c12 | 10.3 µM [rising, partial curve] | – |
| Cc1nc2c(C)cccc2cc1C(=O)N/N=C/c1ccc(N(C)C)cc1 | 11.6 µM [rising, partial curve] | 25.9 µM [falling, partial curve, poor fit] |
| Cc1ccc(NC(=O)CSc2nc3nc(C)cc(C)c3c(=O)[nH]2)cc1 | 20.6 µM [falling, partial curve] | – |
| C(=C\c1nccc2c1[nH]c1ccccc12)/c1ccccc1 | 5.62 µM [falling, partial curve, poor fit] | – |
| Cc1cccc(NC(=O)c2n[nH]c([N+](=O)[O-])c2Br)c1C | 20 µM [falling, single point] | – |
| Cc1cccc(-c2cccc(NC(=O)C3CCCN(C(=O)c4ocnc4C)C3)c2)c1 (configuration not stated) | 35.5 µM [falling, single point] | – |
| NS(=O)(=O)c1ccc(NC(=O)CSc2nc3ccccc3nc2N2CCOCC2)cc1 | 0.447 µM [falling, full curve, poor fit] | – |
| Cc1ccnc(NC(=O)CNC(=O)c2ccc3ccccc3c2)c1 | 2.91 µM [rising, full curve] | – |
| COc1ccc(OC)c(/C=N/NC(=O)c2ccc(N(C)S(=O)(=O)c3ccccc3)cc2)c1 | 35.5 µM [falling, partial curve, poor fit] | – |
| Cc1nc(CC(=O)O)c(-c2ccccc2)s1 | 8.2 µM [falling, partial curve, poor fit] | – |
| CCC(C)N(C(=O)COC(=O)c1nc(Cl)ccc1Cl)C1CCS(=O)(=O)C1 (configuration not stated) | 5.8 µM [falling, partial curve, poor fit] | – |
| C=C(C)c1cccc(C(C)(C)NC(=O)N2CCCCC2CC)c1 (configuration not stated) | 0.92 µM [falling, full curve, poor fit] | – |
| O=C(Oc1ccccc1-c1nnco1)c1ccc(Cl)cc1 | 31.6 µM [falling, single point] | – |
| CS(=O)(=O)N1CCN(c2ccccc2NC(=O)c2ccc(-c3ccc(Br)cc3)o2)CC1 | 8.2 µM [falling, single point] | – |
| O=C(N/N=C\c1ccc2c(c1)OCO2)c1ccc(Cn2cc(Br)c([N+](=O)[O-])n2)o1 | 2.82 µM [falling, partial curve, poor fit] | – |
| Cc1ccc(NC(=O)C(=O)NCC2CCCO2)cc1 (configuration not stated) | 3.98 µM [falling, partial curve] | – |
| Cc1cccc(NS(=O)(=O)c2cc(C(=O)NCCC3=CCCCC3)ccc2Cl)c1 | 10 µM [falling, partial curve] | – |
| CN1/C(=C\C(=O)COC(=O)CNC(=O)c2ccc3ccccc3c2)C(C)(C)c2ccccc21 | 29.1 µM [falling, single point] | – |

| Compound | AC50 [1] | AC50 [2] |
| --- | --- | --- |
| Cc1nc([N+](=O)[O-])c(Sc2nc3ccccc3n2C)n1Cc1ccccc1 | 20.6 µM [falling, partial curve, poor fit] | 25.9 µM [rising, partial curve, poor fit] |
| c1ccc(N/N=C2\CCCc3ccccc32)nc1 | 0.891 µM [rising, full curve, poor fit] | – |
| COC(=O)c1ccc(NC(=O)CSc2nnc(CNc3ccc(F)cc3)n2C)cc1 | 25.9 µM [falling, single point] | – |
| COc1ccc(-c2cc(C3CCN(c4ccc(C(C)=O)cc4[N+](=O)[O-])CC3)[nH]n2)cc1 | 31.6 µM [falling, single point] | – |
| CCOc1cc(N2CCOCC2)c(OCC)cc1NC(=O)c1cccc(S(=O)(=O)N2CCOCC2)c1 | 3.26 µM [rising, full curve, poor fit] | – |
| CNC(=S)N/N=C(\C)c1ccc(C)c(C)c1 | 20.6 µM [falling, single point] | 23.1 µM [falling, single point] |
| CC(OCC(O)CN(C)Cc1nc2ccccc2c(=O)[nH]1)c1ccc(Cl)cc1 (configuration not stated) | 12.6 µM [falling, single point] | – |
| CC(C)Nc1ccc(C(CC(N)=O)NC(=O)Cc2cccc3ccccc23)cc1[N+](=O)[O-] (configuration not stated) | 0.562 µM [rising, full curve, poor fit] | – |
| Cc1ccc(C)c(Nc2ncnc3c2cnn3-c2ccc(F)cc2)c1 | 12.6 µM [falling, partial curve, poor fit] | – |
| CCOC(=O)C1CCN(C(=O)CC2(CC(=O)O)CCCC2)CC1 | 10 µM [rising, partial curve] | – |
| Cc1ncoc1C(=O)NCc1ccccc1Cl | 35.5 µM [falling, single point] | – |
| COc1ccc(C)cc1NS(=O)(=O)c1ccc(-c2cnc(C3CC3)o2)cc1 | 2.82 µM [rising, full curve, poor fit] | 4.47 µM [falling, full curve] |
| Cc1cc2ncc(C(=O)Nc3ccccc3)c(C)n2n1 | 2.91 µM [rising, partial curve, poor fit] | – |
| O=C1OC(C(=O)O)Cc2ccccc21 (configuration not stated) | 25.9 µM [rising, partial curve, poor fit] | – |
| CCOc1ccc(/C=C/C(=O)c2cc(Br)ccc(=O)c2O)cc1 | 18.4 µM [falling, partial curve] | – |
| Nc1nc(Cl)cc(Sc2ccc(F)cc2)n1 | 7.31 µM [rising, partial curve] | – |
| Cc1ccc(-c2c(C)sc3ncn(CC(=O)N4CCOCC4)c(=O)c23)cc1C | 6.31 µM [rising, single point] | – |
| COc1ccc(CCNC(=O)c2c[nH]n3c(=O)c(Cc4ccccc4Cl)c(C)nc23)cc1OC | 12.6 µM [rising, partial curve, poor fit] | – |
| CCc1cc2c(=O)c(-c3nc4ccccc4[nH]3)coc2c(CN2CCCCC2C)c1O (configuration not stated) | 17.8 µM [falling, partial curve, poor fit] | – |
